According to paper PMC12407359:
No constants are given. Whether binding was seen depends on the method and setting. In cells and extracts the contact can be indirect. Some results given as binding are weak or reduced against the parent protein; the word gives no strength.

Amino acid sequences for entries named in this document (tags omitted).
UniProt P29351: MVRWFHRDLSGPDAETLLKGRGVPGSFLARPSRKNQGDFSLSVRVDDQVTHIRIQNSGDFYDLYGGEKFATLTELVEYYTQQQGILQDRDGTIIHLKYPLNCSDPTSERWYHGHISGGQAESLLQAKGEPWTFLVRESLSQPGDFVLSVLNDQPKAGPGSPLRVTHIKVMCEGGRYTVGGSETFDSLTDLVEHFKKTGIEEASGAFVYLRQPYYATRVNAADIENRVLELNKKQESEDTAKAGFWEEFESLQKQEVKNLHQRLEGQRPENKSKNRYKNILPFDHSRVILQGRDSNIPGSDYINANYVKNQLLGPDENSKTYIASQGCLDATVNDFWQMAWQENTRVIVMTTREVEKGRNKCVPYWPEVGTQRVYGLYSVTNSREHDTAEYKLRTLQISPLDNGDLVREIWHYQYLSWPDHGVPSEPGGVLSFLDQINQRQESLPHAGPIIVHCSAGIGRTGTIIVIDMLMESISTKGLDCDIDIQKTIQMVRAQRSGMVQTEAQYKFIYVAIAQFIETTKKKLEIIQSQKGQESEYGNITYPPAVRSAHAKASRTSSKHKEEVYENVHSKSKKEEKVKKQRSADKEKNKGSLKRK

Target: T1, Signaling lymphocyte activation molecule family 3 (SLAMF3) (mouse (endogenous in macrophages from mouse liver metastases)) (UniProt Q01965)
T1 sequence: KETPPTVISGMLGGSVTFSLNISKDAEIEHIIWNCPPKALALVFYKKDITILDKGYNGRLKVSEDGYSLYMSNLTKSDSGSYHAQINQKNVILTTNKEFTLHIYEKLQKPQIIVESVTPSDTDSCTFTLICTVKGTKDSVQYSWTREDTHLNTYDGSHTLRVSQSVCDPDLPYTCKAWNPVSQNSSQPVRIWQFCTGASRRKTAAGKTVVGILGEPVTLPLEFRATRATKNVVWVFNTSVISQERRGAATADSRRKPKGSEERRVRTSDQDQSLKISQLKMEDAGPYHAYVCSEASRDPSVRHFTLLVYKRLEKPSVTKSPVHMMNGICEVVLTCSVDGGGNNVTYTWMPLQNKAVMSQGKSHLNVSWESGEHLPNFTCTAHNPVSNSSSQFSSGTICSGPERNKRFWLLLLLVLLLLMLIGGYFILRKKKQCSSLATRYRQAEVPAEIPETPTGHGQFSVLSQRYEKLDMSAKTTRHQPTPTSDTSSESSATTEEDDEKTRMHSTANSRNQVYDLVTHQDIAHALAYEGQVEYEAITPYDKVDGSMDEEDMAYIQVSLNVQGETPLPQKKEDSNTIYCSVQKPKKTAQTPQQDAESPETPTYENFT
Experiment: co-IP; endogenous proteins in macrophages isolated from mouse liver metastases formed by MC38-P, MC38-LM3b-shScramble and MC38-LM3b-shSLAMF3 cells; procedure as in cited references

- binding: binds
Substance: SHP-1 (from UniProt P29351 1-595) (enzyme)
